# From patent publication US8241866B2, “Method for detection of microorganism and kit for detection of microorganism” (Morinaga Milk Industry Co., Ltd., priority 2005, dated 2012)
# At least one compound was matched to its structure with a doubt left.
# System: Mycobacterium tuberculosis H37RA
# Assay type: cell-based
compound,measurement,value
CO[C@H]1/C=C/O[C@@]2(C)Oc3c(C)c(O)c4c(O)c(c(/C=N/N5CCN(C)CC5)c(O)c4c3C2=O)NC(=O)/C(C)=C\C=C\[C@H](C)[C@H](O)[C@@H](C)[C@@H](O)[C@@H](C)[C@H](OC(C)=O)[C@@H]1C [rifampicin],colony formation on 7H10 medium,did not form colonies
